From article PMC10740027
These are yes or no findings as the source states them, for the method shown. Binding seen in cells or lysates may run through a third protein. Some entries that bind do so weakly or less than the wild type. For some assays here: Tags and fused reporters may be left off the sequences shown.

T1: Ubiquitin Conjugating Enzyme E2O (UBE2O) (human (endogenous in HCCLM3, Hep-3B, Huh-7)) (UniProt Q9C0C9)
T1 sequence: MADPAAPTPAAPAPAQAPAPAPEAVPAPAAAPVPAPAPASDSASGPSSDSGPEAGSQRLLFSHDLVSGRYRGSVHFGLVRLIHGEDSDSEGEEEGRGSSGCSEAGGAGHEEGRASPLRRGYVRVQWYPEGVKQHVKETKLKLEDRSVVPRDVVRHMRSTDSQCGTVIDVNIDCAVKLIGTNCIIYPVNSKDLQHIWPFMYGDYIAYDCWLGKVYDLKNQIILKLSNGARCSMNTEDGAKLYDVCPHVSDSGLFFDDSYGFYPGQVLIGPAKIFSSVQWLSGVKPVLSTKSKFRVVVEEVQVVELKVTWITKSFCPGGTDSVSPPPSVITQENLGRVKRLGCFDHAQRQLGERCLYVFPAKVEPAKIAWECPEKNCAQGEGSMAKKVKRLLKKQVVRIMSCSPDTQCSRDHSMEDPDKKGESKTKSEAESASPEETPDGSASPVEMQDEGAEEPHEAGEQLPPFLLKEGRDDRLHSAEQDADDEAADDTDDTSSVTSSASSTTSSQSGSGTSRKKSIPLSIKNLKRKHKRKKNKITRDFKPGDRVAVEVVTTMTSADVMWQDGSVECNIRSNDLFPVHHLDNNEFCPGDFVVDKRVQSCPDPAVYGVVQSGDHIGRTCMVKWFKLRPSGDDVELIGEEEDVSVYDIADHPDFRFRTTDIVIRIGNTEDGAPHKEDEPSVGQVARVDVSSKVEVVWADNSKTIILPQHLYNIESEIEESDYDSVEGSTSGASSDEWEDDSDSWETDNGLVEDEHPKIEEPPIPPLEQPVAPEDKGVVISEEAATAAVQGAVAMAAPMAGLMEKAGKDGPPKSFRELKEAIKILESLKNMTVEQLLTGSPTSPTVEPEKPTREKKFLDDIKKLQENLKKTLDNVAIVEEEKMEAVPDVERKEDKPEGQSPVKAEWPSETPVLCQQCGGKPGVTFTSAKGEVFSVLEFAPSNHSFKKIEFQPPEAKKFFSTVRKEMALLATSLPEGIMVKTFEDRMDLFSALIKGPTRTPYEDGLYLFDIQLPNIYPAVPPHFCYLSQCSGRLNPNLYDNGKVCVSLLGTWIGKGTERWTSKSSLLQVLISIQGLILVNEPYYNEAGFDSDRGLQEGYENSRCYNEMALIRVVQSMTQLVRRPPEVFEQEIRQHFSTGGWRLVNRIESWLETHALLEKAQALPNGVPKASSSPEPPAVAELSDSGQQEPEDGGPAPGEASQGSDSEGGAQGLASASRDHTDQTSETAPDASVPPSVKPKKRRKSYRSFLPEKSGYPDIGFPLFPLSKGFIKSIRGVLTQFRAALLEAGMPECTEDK

T2: UBE2O, tagged, expressed from a plasmid (UniProt Q9C0C9)
T2 sequence: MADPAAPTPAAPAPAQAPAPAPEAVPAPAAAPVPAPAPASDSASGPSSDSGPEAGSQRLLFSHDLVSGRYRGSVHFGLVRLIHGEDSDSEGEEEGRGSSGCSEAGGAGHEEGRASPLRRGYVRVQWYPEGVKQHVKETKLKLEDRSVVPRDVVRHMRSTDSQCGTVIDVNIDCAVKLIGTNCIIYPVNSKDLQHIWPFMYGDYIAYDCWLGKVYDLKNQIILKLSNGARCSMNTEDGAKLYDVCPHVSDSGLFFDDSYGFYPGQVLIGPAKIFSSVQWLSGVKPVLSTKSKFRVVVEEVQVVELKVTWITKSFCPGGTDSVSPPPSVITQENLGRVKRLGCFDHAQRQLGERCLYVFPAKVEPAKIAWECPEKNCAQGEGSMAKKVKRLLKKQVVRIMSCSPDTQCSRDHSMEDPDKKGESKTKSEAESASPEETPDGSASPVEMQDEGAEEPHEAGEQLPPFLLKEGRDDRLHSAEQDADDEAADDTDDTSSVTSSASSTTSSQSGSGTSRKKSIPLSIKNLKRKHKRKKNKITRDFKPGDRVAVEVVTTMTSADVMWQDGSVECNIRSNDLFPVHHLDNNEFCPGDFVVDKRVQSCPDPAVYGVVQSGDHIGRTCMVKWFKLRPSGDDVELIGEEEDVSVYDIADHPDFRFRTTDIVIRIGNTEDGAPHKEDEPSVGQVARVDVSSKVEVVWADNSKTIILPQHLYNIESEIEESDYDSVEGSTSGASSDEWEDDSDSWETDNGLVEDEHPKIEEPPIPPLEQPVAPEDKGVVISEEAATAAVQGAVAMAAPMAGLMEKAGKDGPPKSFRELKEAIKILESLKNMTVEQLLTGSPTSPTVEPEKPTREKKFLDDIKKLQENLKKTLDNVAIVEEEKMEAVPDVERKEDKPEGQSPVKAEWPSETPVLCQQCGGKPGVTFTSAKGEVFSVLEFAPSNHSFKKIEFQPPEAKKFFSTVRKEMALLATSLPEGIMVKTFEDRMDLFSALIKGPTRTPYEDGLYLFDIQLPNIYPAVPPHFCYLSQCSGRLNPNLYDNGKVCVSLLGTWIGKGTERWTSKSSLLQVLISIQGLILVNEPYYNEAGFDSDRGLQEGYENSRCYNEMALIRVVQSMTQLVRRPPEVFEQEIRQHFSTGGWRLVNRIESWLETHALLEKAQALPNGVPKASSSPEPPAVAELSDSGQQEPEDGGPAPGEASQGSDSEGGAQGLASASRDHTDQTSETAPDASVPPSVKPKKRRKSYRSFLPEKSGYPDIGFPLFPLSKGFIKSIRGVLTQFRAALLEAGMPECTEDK


Experiments:
[1] = molecular target: T1, Ubiquitin Conjugating Enzyme E2O (UBE2O) (human (endogenous in HCCLM3, Hep-3B, Huh-7)); assay: co-IP; endogenous proteins; lysates of HCCLM3, Hep-3B and Huh-7 cells; protein A/G magnetic beads with anti-UBE2O or anti-IFIT3 antibodies; Western blot
[2] = molecular target: T2, UBE2O, tagged, expressed from a plasmid; assay: co-IP; 293 T cells transfected with plasmids containing different tags, 48 h, MG132 (10 μM) 4-6 h; protein A/G beads and antibodies specific for the corresponding tags; Western blot

Row | binding [1] | binding [2] | Binder
1 | binds |  | interferon-induced protein with tetratricopeptide repeats 3 (IFIT3) (protein, UniProt O14879 1-490) MSEVTKNSLEKILPQLKCHFTWNLFKEDSVSRDLEDRVCNQIEFLNTEFKATMYNLLAYIKHLDGNNEAALECLRQAEELIQQEHADQAEIRSLVTWGNYAWVYYHLGRLSDAQIYVDKVKQTCKKFSNPYSIEYSELDCEEGWTQLKCGRNERAKVCFEKALEEKPNNPEFSSGLAIAMYHLDNHPEKQFSTDVLKQAIELSPDNQYVKVLLGLKLQKMNKEAEGEQFVEEALEKSPCQTDVLRSAAKFYRRKGDLDKAIELFQRVLESTPNNGYLYHQIGCCYKAKVRQMQNTGESEASGNKEMIEALKQYAMDYSNKALEKGLNPLNAYSDLAEFLETECYQTPFNKEVPDAEKQQSHQRYCNLQKYNGKSEDTAVQHGLEGLSISKKSTDKEEIKDQPQNVSENLLPQNAPNYWYLQGLIHKQNGDLLQAAKCYEKELGRLLRDAPSGIGSIFLSASELEDGSEEMGQGAVSSSPRELLSNSEQLN
2 |  | binds | IFIT3, tagged, expressed from a plasmid (protein, UniProt O14879 1-490) MSEVTKNSLEKILPQLKCHFTWNLFKEDSVSRDLEDRVCNQIEFLNTEFKATMYNLLAYIKHLDGNNEAALECLRQAEELIQQEHADQAEIRSLVTWGNYAWVYYHLGRLSDAQIYVDKVKQTCKKFSNPYSIEYSELDCEEGWTQLKCGRNERAKVCFEKALEEKPNNPEFSSGLAIAMYHLDNHPEKQFSTDVLKQAIELSPDNQYVKVLLGLKLQKMNKEAEGEQFVEEALEKSPCQTDVLRSAAKFYRRKGDLDKAIELFQRVLESTPNNGYLYHQIGCCYKAKVRQMQNTGESEASGNKEMIEALKQYAMDYSNKALEKGLNPLNAYSDLAEFLETECYQTPFNKEVPDAEKQQSHQRYCNLQKYNGKSEDTAVQHGLEGLSISKKSTDKEEIKDQPQNVSENLLPQNAPNYWYLQGLIHKQNGDLLQAAKCYEKELGRLLRDAPSGIGSIFLSASELEDGSEEMGQGAVSSSPRELLSNSEQLN
